From ChEMBL document CHEMBL3988442, “University of Dundee, Small-Polar-MMV Screening Library” (2021).

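Assay on Mycobacterium tuberculosis, filed only as a heat shock assay from Cornell; the read-out is not stated. The concentration is filed as 10 mM, unlikely as a test dose, so the dose is not known. Direction is inferred from retests: higher values go with stronger inhibition. Size under these conditions: about 69,000 compounds, about 930 of them at 50% or above in at least one test.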

Each number is a percent effect as filed. The controls that fix the scale are not given in the record; negative values are as filed. The compounds are a random part of those screened.

| # | structure | percent effect |
|---|---|---|
| 1 | `CCNC(c1cccnc1)c1ccc(F)c(F)c1` (stereo not given) | -14.52 |
| 2 | `Cc1cc(C)n(Cc2cccc(C(=O)NCCSCC(C)(C)O)c2)n1` | -6.289 |
| 3 | `CN(CC(=O)N(C)C(c1ccc(Cl)cc1)c1cccnc1)C1CC1` (stereo not given) | -7.853 |
| 4 | `CS(=O)(=O)N1CCc2[nH]cnc2C12CCN(C(=O)c1ccc[nH]1)CC2` | 3.077 |
| 5 | `O=C(NCc1cc(=O)n2c(n1)CN(CC1CC1)CCC2)c1ccsc1.O=C(O)C(F)(F)F` | 40.06 |
| 6 | `Cc1ccc(OC2(C(=O)O)CCN(C(=O)c3ccccc3F)CC2)cn1` | 10.8 |
| 7 | `O=C(c1cccc(S(=O)(=O)NCCCn2cccn2)c1)N1CCOCC1` | 4.821 |
| 8 | `CC(C)c1cc(C(=O)N2CCCN(Cc3ccccc3)CC2)n[nH]1` | 19.6 |
| 9 | `COc1ccc(C)cc1-n1cnnc1C1CCOCC1` | 0.4533 |
| 10 | `Cn1c(C2CC2)nc2c1CCN(CC(=O)Nc1ccncc1)C2` | -11.61 |
| 11 | `Cc1ccc(-c2ccc(C3CNCCO3)nc2)cc1.Cl` (stereo not given) | -12.85 |
| 12 | `c1ccc2oc(NC3CCCN(Cc4noc(C5CC5)n4)C3)nc2c1` (stereo not given) | 46.25 |
| 13 | `O=C(O)C(F)(F)F.O=C(O)C(F)(F)F.O=C(O)C(F)(F)F.c1ccc(CN2CCc3c(COCC4CC4)cncc3C2)nc1` | -7.582 |
| 14 | `Cc1nc(CC(=O)N2CCC(c3ccn4nccc4n3)CC2)cs1` | -11.07 |
| 15 | `[H][C@@]12CCNC[C@]1([H])N(C(=O)N1CCCC1)C2` | -0.3747 |
| 16 | `COc1ccc(-n2cc(CNC(=O)c3ccccn3)nn2)cc1` | -10.64 |
| 17 | `Cc1ccc2nc(CN(C)Cc3ccc(C)o3)cc(=O)n2c1` | 4.331 |
| 18 | `CCn1cnnc1CNC(=O)C1CCCN(Cc2cccc(F)c2)C1` (stereo not given) | -1.852 |
| 19 | `CCCc1nc(N[C@H]2COC[C@@H]2N2CCCC2)c2cnn(C)c2n1` | -10.55 |
| 20 | `O=C(CCN1CCc2ccccc21)N1C[C@@H](O)[C@H](N2CCCC2)C1` | -11.74 |
| 21 | `O=C1NCC(C(=O)NCc2ccccc2CN2CCOCC2)N1` (stereo not given) | -6.754 |
| 22 | `COc1ccc(CN2CCC(c3nnc(-c4scnc4C)o3)CC2)cc1` | -10.04 |
| 23 | `O=C1CC(c2ccc3c(c2)OCO3)c2snc(C(=O)O)c2N1` (stereo not given) | -9.226 |
| 24 | `CCn1nc(C)c2c1cnn2CC(=O)NC(C)c1cccc(OC)c1` (stereo not given) | 20.83 |
| 25 | `COCCN(C)C[C@@H]1CN(C(=O)c2ccc(C)c(Cl)c2)C[C@@H]1CO` | 22.74 |
| 26 | `CCc1ncc(C(=O)N2CCn3c(CC)nnc3C2)s1` | 5.691 |
| 27 | `COCCOCC(=O)N1CCCC(c2ncc[nH]2)C1` (stereo not given) | 9.008 |
| 28 | `[H][C@@]12CCN(C(C)=O)C[C@]1([H])CCN(C1CCCCC1)C(=O)C2` | -7.67 |
| 29 | `CN(C)C(=O)c1ccc(CNc2c(Cl)cccc2C#N)cc1` | 0.3118 |
| 30 | `Cc1cc(C)n(CC2CCCN2C(=O)c2cnc3n[nH]c(C)c3c2)n1` (stereo not given) | 7.673 |
| 31 | `c1cnnc(N2CCCC(NCc3cn4ccccc4n3)C2)c1` (stereo not given) | 14.12 |
| 32 | `Cc1cc(C)n(-c2ccc(C(=O)NCC(CO)Cc3cccs3)cc2)n1` (stereo not given) | 3.304 |
| 33 | `COc1ccc(CN(C)[C@@H]2CN(C(=O)c3cccn3C)C[C@H]2O)cc1` | -19.99 |
| 34 | `CCC(C)(C)NC(=O)c1ncn2c1CN(C)S(=O)(=O)c1ccccc1-2.O=C(O)C(F)(F)F` | -13.28 |
| 35 | `Cc1ccc(NC2CCN(C(=O)CCC3CCCO3)CC2)nn1` (stereo not given) | 4.793 |
| 36 | `O=C(CCN1CCCCCC1c1ccco1)N1CCOCC1` (stereo not given) | 10.16 |
| 37 | `Cc1cc(CC(=O)NC2CCCN(c3ccccc3F)C2=O)n[nH]1` (stereo not given) | -19.01 |
| 38 | `COc1cc(CNC(C)Cn2ccnc2)cc2c1OCCO2` (stereo not given) | -30.33 |
| 39 | `CNS(=O)(=O)c1cccc(C(=O)N(C)Cc2ccsc2)c1` | -1.367 |
| 40 | `Cl.Cl.OC(CN1CCN(Cc2ccc(F)c(F)c2)CC1)C1CC1` (stereo not given) | -10.09 |
| 41 | `COCc1nn(C(C)C)c2c1CCN(Cc1ccc(C)o1)C2.O=C(O)C(F)(F)F` | -24.01 |
| 42 | `CC(C)c1ccc(C(CN)N2CCc3sccc3C2)cc1` (stereo not given) | 92.4 |
| 43 | `CCC(CC)(CNC(=O)OC(C)(C)C)NC(=O)c1cnccn1` | -2.205 |
| 44 | `COCC(=O)N1CCCCC1c1ccnc(Nc2cnccn2)n1` (stereo not given) | -6.25 |
| 45 | `CCOC(C)c1noc(CN2CCN(c3nnc(C)s3)CC2)n1` (stereo not given) | -8.669 |
| 46 | `CC(C)(C)OC(=O)N[C@@H]1C[C@@H](O)CN(C(=O)c2cccc(F)c2)C[C@H]1O` | 2.76 |
| 47 | `N#Cc1ccc(Cl)cc1NCC1CC1` | 5.889 |
| 48 | `CC(C)c1noc(C[S+]([O-])CC(=O)Nc2ccc(F)c(F)c2)n1` (stereo not given) | -3.682 |
| 49 | `O=C(O)C(F)(F)F.[H][C@@]12OCCN(C(=O)C3=CCCCC3)[C@@]1([H])CC[C@H]2Oc1ccccn1` | -33.43 |
| 50 | `Cc1ccc(Oc2ncccc2CNC(=O)C2COC(=O)N2)c(F)c1F` (stereo not given) | 5.707 |
| 51 | `O=C(CCn1ccc2ccccc21)N1CCN(Cc2cccnc2)CC1` | -7.671 |
| 52 | `CCc1nc(C2CCCN2Cc2cc(=O)n(C)c(=O)n2C)no1` (stereo not given) | -9.643 |
| 53 | `CC(C)CN1CCC2(CCN(C(=O)c3ccc(F)cc3)CC2)C1=O` | -30.46 |
| 54 | `FC(F)(F)COCCN1CCOC(Cn2cccn2)C1` (stereo not given) | -5.365 |
| 55 | `CNCc1ccc(Oc2cncc(C)n2)cc1` | 5.26 |
| 56 | `Cc1nc(CN(C)C)cc(N2CCCC(COc3ccc(F)cc3)C2)n1` (stereo not given) | 82.2 |
| 57 | `CCOC1COC2(CCN(Cc3cccc(C)n3)CC2)C1.O=C(O)C(F)(F)F` (stereo not given) | -4.079 |
| 58 | `Cn1cnc2c1CCN(CC(=O)N(Cc1ccccc1F)C1CC1)C2` | 2.475 |
| 59 | `Cc1ncc(CC(=O)N2CCC3(CCC(=O)N(CCO)C3)CC2)c(=O)[nH]1` | 2.998 |
| 60 | `Cc1nc(C2CCCN2CC(=O)N2CCCc3ccccc32)no1` (stereo not given) | 22.66 |
| 61 | `Cc1nn(C)c(C)c1OCC(=O)N1CCCCC1` | 11.91 |
| 62 | `CC(=O)N1CCCC(c2ccc(CO)c(-c3c(C)noc3C)n2)C1` (stereo not given) | -20.44 |
| 63 | `O=c1ccc(-n2cccn2)nn1CCNS(=O)(=O)c1ccc(F)c(Cl)c1` | 13.67 |
| 64 | `CC(C)(C)CCCC(=O)NS(=O)(=O)CC1CC1` | -1.96 |
| 65 | `O=C(CC1CCN(c2cccnn2)CC1)NCCO` | 0.3313 |
| 66 | `Cc1nc(CSc2ccc(C(F)(F)F)cn2)no1` | 1.15 |
| 67 | `NCCc1c(-c2ccccc2)[nH][nH]c1=O.O=C(O)C(=O)O` | -25.01 |
| 68 | `c1nc2c(c(N3CCOC(Cn4cncn4)C3)n1)CCC2` (stereo not given) | 2.796 |
| 69 | `Cn1c(-c2ccc(F)cc2)cn2cc(C(=O)N3CC[C@@H](O)C3)nc2c1=O` | 0.1974 |
| 70 | `CCn1c(CN2CCN(CC(N)=O)CC2)nc2c(F)cccc21` | 8.639 |
| 71 | `[H][C@]12CCN(C(=O)c3cc(C)oc3C)C[C@@]1([H])OCCN(S(C)(=O)=O)C2` | 20.47 |
| 72 | `CC(=O)N1CCCC1c1nccnc1Nc1cccc(C)n1` (stereo not given) | 9.25 |
| 73 | `Cl.Cn1ccnc1CNC(=O)c1cncc(C2CCNCC2)n1` | 3.703 |
| 74 | `NC(=O)C1CCCN(Cc2ccc(C(=O)Nc3cnns3)cc2)C1` (stereo not given) | -6.189 |
| 75 | `NS(=O)(=O)c1cccnc1NCc1ccco1` | 16.97 |
| 76 | `Fc1cnc(N2CCC3(CCCN(c4nncs4)C3)C2)nc1` (stereo not given) | -20.97 |
| 77 | `Cc1cccc(C)c1OCC(=O)NC(C)c1nnc2n1CCC2` (stereo not given) | -4.207 |
| 78 | `COC1CCN(c2ccc(NC(=O)Cn3cccn3)cc2)CC1` | 8.823 |

The first 6 entries again:

structure	percent effect
CCNC(c1cccnc1)c1ccc(F)c(F)c1 (stereo not given)	-14.52
Cc1cc(C)n(Cc2cccc(C(=O)NCCSCC(C)(C)O)c2)n1	-6.289
CN(CC(=O)N(C)C(c1ccc(Cl)cc1)c1cccnc1)C1CC1 (stereo not given)	-7.853
CS(=O)(=O)N1CCc2[nH]cnc2C12CCN(C(=O)c1ccc[nH]1)CC2	3.077
O=C(NCc1cc(=O)n2c(n1)CN(CC1CC1)CCC2)c1ccsc1.O=C(O)C(F)(F)F	40.06
Cc1ccc(OC2(C(=O)O)CCN(C(=O)c3ccccc3F)CC2)cn1	10.8